Results reported in PubChem BioAssay AID1347075 (National Center for Advancing Translational Sciences (NCATS), 2019).
Hit rate of the full screen: of about 400,000 compounds, about 5,500 (1.4%) were called active. The inconclusive results got no clear call from the source; some entries with a clear call stand among them for comparison. Calls come from the whole dose curve; as a rule, active = well fitted cell-killing curve with a large enough effect; inconclusive = small, poorly fitted or top-dose-only effect, or effect the other way; inactive = flat fitted curve, though single readings scatter. Potencies beside an inconclusive call are fits to weak or partial responses and may not hold up.
% is set by controls: 0 for no effect and ±100 for the full control effect; potency is the fitted concentration of half-maximal effect.

Assay: qHTS assay for MDR1-selective chemotherapeutics: Primary screen using the parental adenocarcinoma cell KB-3-1; note: nearly all actives have a fitted effect of over 60% in size
Settings: KB-3-1 viability, CellTiter-Glo ATP luminescence, 72 h; activity change, negative = cytotoxic: at 46.1 µM (top of the series)
How it was run: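 KB-3-1 cells, DMEM (no phenol red) + 10% FBS; compound by pin transfer, 72 h, 37 °C. Readout: CellTiter-Glo luminescence after 10 min. Data normalized, curve-fitted.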
For `CCCN1CN(Cc2ccccc2)CNC1=S`, the “activity change, negative = cytotoxic” value was inactive: -0.681%. In the case of `CC(=O)NC(Cc1c[nH]c2ccccc12)C(=O)NCc1ccco1` (stereo not given), the Potency is reported as inconclusive: 2.31 µM [cytotoxic, partial curve, poor fit]. For `Cc1cccc2nc(CSc3nc4cc([N+](=O)[O-])ccc4s3)cn12`, the “activity change, negative = cytotoxic” value was inactive: -2.95%. With `Cc1cc(C)cc(NC(=O)Nc2ccc3nc(N4CCN(C)CC4)cc(C)c3c2)c1` the Potency was inconclusive: 18.4 µM [cytotoxic, single point]. In the case of `CCOc1ccc(NC(=O)Cn2ccn3nc(-c4ccc(OC)c(OC)c4)cc3c2=O)cc1`, the “activity change, negative = cytotoxic” value is reported as inactive: 6.34%. With `CCNC(=O)C1(C)CCN(C(=O)c2ccc(OC)c(OC)c2)C1` (stereo not given) the Potency was inconclusive: 29.1 µM [cytotoxic, partial curve, poor fit]. For `Cc1ccc(C2(C)NC(=O)N(CC(=O)N3CCN(S(=O)(=O)c4ccc(Cl)s4)CC3)C2=O)cc1` (stereo not given), the Potency was inconclusive: 14.6 µM [cytotoxic, partial curve, poor fit]. With `Cc1nn(CC(=O)NCCCN2CCC(N3CCCCC3)CC2)c(=O)c2cc(-c3ccccc3)nn12` the Potency was inconclusive: 20.6 µM [cytotoxic, partial curve, poor fit]. In the case of `O=C(O)CCC(=O)Nc1sc2c(c1C(=O)Nc1ccccc1)CCCCC2`, the Potency is reported as inconclusive: 6.51 µM [rising, partial curve, poor fit]. With `CCC(NC(=O)c1cccc(Cn2cc([N+](=O)[O-])cn2)c1)c1ccc(C(C)C)cc1` (stereo not given) the Potency was inconclusive: 29.1 µM [cytotoxic, single point]. In the case of `CCN(CC)c1nc2ccccc2nc1-n1nc(C)cc1C`, the Potency is reported as inconclusive: 5.17 µM [cytotoxic, partial curve, poor fit]. With `O=S(=O)(O)c1ccc2c(c1)C(C(Cl)(Cl)Cl)OC(C(Cl)(Cl)Cl)O2` (stereo not given) the “activity change, negative = cytotoxic” value was inactive: -1.93%. With `O=C(O)CC1NC(=O)N(C2CCCCC2)C1=O` (stereo not given) the Potency was inconclusive: 4.11 µM [rising, partial curve, poor fit]. In the case of `Cc1ccc(-n2c3nc(=O)[nH]c(=O)c-3cc3c(C)nn(-c4ccccc4)c32)cc1C`, the “activity change, negative = cytotoxic” value is reported as inactive: 3.36%. For `NC(=S)NN=Cc1nccc2c(N)cccc12`, the Potency was inconclusive: 2.06 µM [cytotoxic, full curve, poor fit]. In the case of `O=C(O)CCC1COc2ccccc2O1` (stereo not given), the Potency is reported as inconclusive: 18.4 µM [cytotoxic, single point]. For `Cc1cccc(/C=N/n2c(-c3cc(-c4ccccc4)n[nH]3)n[nH]c2=S)c1`, the Potency was inconclusive: 6.51 µM [rising, partial curve]. For `CCOc1ccc(NC(=O)Nc2cccnc2)cc1`, the Potency was inconclusive: 18.4 µM [cytotoxic, single point]. With `CC1(C(=O)Nc2ccc(Cl)c(C(F)(F)F)c2)Cc2c(-c3ccc(C(N)=O)cc3)ccnc2O1` (stereo not given) the Potency was inconclusive: 29.1 µM [cytotoxic, single point]. In the case of `Cc1c(C(=O)OC(C)C)sc(NC(=O)C2c3ccccc3Oc3ccccc32)c1C(=O)OC(C)C`, the Potency is reported as inconclusive: 29.1 µM [cytotoxic, single point]. For `COCCNC(=O)c1cccc(NC(=O)C2=C(C)OCCS2)c1`, the Potency was inconclusive: 0.058 µM [rising, full curve]. With `COc1ccc(C(C#N)N2N=C(C)CC2c2ccccc2)cc1` (stereo not given) the “activity change, negative = cytotoxic” value was inactive: 7.48%. In the case of `Brc1cccc[n+]1Cc1cccc(C[n+]2ccccc2Br)c1`, the “activity change, negative = cytotoxic” value is reported as inactive: -4.59%. With `COc1ccc(CNC(=O)CSc2ncc3c(n2)-c2ccc(Cl)cc2N(Cc2ccc(F)cc2)S3(=O)=O)cc1OC` the “activity change, negative = cytotoxic” value was inactive: -14.6%. With `C#C[C@]1(O)CC[C@H]2[C@@H]3CCc4cc(O)ccc4[C@H]3CC[C@@]21C` the Potency was inconclusive: 29.1 µM [cytotoxic, single point]. In the case of `CCSc1cc(C)nc2c(-c3ccccc3)cnn12`, the Potency is reported as inconclusive: 20.6 µM [cytotoxic, partial curve, poor fit]. For `Cc1scc(C(=O)N/N=C/c2ccc(OCC(C)C)cc2)c1C`, the Potency was inconclusive: 25.9 µM [cytotoxic, single point]. For `O=C1NC[C@@H](CCCCN2C[C@H](Cc3ccccc3)N(CCC3CCCCC3)C(=O)C2=O)N(CCc2ccc(O)cc2)C1=O`, the Potency was inconclusive: 23.1 µM [rising, single point]. In the case of `COc1cccc(CN(C)C(=O)c2cccc(S(=O)(=O)N3CCN(c4ccccc4)CC3)c2)c1OC`, the Potency is reported as inconclusive: 16.4 µM [cytotoxic, partial curve, poor fit]. In the case of `CC(C)(C)c1ccc(C(=O)NCC(c2ccco2)S(=O)(=O)c2ccc(F)cc2)cc1` (stereo not given), the Potency is reported as inconclusive: 18.4 µM [cytotoxic, single point]. For `c1ccc2c(CSc3ncnc4nc[nH]c34)cccc2c1`, the Potency was inconclusive: 18.4 µM [cytotoxic, partial curve]. In the case of `COc1ccc(-c2cn3cccnc3n2)cc1NC(=O)c1ccc(Br)o1`, the Potency is reported as inconclusive: 6.31 µM [rising, full curve]. In the case of `O=C1NC[C@H](Cc2ccccc2)N(C[C@H]2CCCN2C[C@H](Cc2ccccc2)N2C[C@H](Cc3ccccc3)N(CC3CCCCCC3)C(=O)C2=O)C1=O`, the Potency is reported as inconclusive: 18.4 µM [cytotoxic, single point]. For `CCN(CC)C(c1ccc(C)cc1)c1nnnn1C1CCCCC1` (stereo not given), the Potency was inconclusive: 18.4 µM [cytotoxic, single point]. In the case of `O=C(Nc1cc(Cl)ccc1N1CCOCC1)c1cccnc1`, the “activity change, negative = cytotoxic” value is reported as inactive: -11.4%. With `NC(N)=N/N=C/c1ccc(OCc2ccccc2)c(OCc2ccccc2)c1` the Potency was inconclusive: 25.9 µM [cytotoxic, partial curve, poor fit]. In the case of `CCOC(=O)C(=O)N(Nc1ccc(C)cc1)c1ccc(C)cc1`, the “activity change, negative = cytotoxic” value is reported as inactive: -1.69%. With `CCn1nc(NC(=O)c2ccco2)c2cc3cc(C)ccc3nc21` the “activity change, negative = cytotoxic” value was inactive: -1%. For `C(=Nc1cnc2ccccc2c1)c1ccncc1`, the Potency was inconclusive: 25.9 µM [rising, partial curve, poor fit]. In the case of `CC(C)(C)n1nc2c(c1NC(=O)c1cc([N+](=O)[O-])ccc1Cl)CS(=O)(=O)C2`, the Potency is reported as inconclusive: 20.6 µM [cytotoxic, single point]. In the case of `Cc1ccc(C23CC4CC(CC(C(=O)N5CCN(C)CC5)(C4)C2)C3)cc1`, the Potency is reported as inconclusive: 20.6 µM [cytotoxic, single point]. For `Nc1ccc(Nc2nc(-c3cc4ccccc4oc3=O)cs2)cc1`, the “activity change, negative = cytotoxic” value was inactive: -14.2%. For `Cc1cc(-c2nc3ncccc3o2)ccc1NC(=O)c1ccccc1Br`, the Potency was inconclusive: 8.2 µM [cytotoxic, partial curve]. In the case of `Cc1cc(C)nc(N/N=C/c2ccc(Cl)cc2)n1`, the “activity change, negative = cytotoxic” value is reported as inactive: -0.808%. With `Cn1c(=O)c2ccccc2n(CC(=O)NCCC2=CCCCC2)c1=O` the Potency was inconclusive: 29.1 µM [rising, single point]. In the case of `COc1ccc(C)cc1Nc1n[n+](-c2ccccc2)c(-c2ccc(N(C)C)cc2)s1`, the Potency is reported as inconclusive: 29.1 µM [cytotoxic, single point]. For `COc1ccc(CCNc2oc(-c3ccccc3OC)nc2C#N)cc1OC`, the “activity change, negative = cytotoxic” value was inactive: -2.2%. With `CCCC(c1nnnn1CC1CCCO1)N1CCN(c2cc(Cl)ccc2C)CC1` (stereo not given) the Potency was inconclusive: 16.4 µM [cytotoxic, single point]. In the case of `CCN1CCN(CCCNC(=O)c2ccc(/C=C3/Sc4ccccc4N(Cc4ccccc4F)C3=O)cc2)CC1`, the Potency is reported as inconclusive: 18.4 µM [cytotoxic, single point]. For `CCOc1cc(Br)cc(/C=N/NC(=O)c2cccnc2)c1O`, the Potency was inconclusive: 29.1 µM [cytotoxic, single point]. With `Cc1cccc(N2CCN(S(=O)(=O)c3csc(C(N)=O)c3)CC2)c1C` the Potency was active: 20.6 µM. With `CC(=O)Nc1ccc(N(CC(O)Cn2c3ccccc3c3ccccc32)S(=O)(=O)c2ccc(C)cc2)cc1` (stereo not given) the Potency was inconclusive: 23.1 µM [cytotoxic, partial curve]. In the case of `Cc1csc(Sc2ccc([N+](=O)[O-])cc2C(=O)OCC(=O)NC2CCCC(C)C2C)n1` (stereo not given), the “activity change, negative = cytotoxic” value is reported as inactive: -2.04%. In the case of `CSc1nc(Sc2ccccc2Cl)c2ccccc2n1`, the Potency is reported as inconclusive: 29.1 µM [cytotoxic, single point]. With `CC(C)CCNC(=O)CCc1nnc2n(CCCOC(C)C)c(=O)c3ccccc3n12` the “activity change, negative = cytotoxic” value was inactive: 7.34%. In the case of `O=C1C=C(c2ccc(Cl)c(C(F)(F)F)c2)C[C@@H](c2ccc(F)cc2)C1`, the Potency is reported as inconclusive: 23.1 µM [cytotoxic, partial curve, poor fit]. With `CC(=O)c1c(C)oc2ccc(N(C(C)=O)S(=O)(=O)c3ccc(Br)cc3)cc12` the “activity change, negative = cytotoxic” value was inactive: -2.19%. For `COC(=O)c1c(C)[nH]c(C(=O)C(C)OC(=O)C2CC(=O)N(CCc3ccccc3)C2)c1C` (stereo not given), the Potency was inconclusive: 1.64 µM [cytotoxic, full curve, poor fit]. With `N#Cc1cc2ccncc2c2ccccc12` the Potency was inconclusive: 29.1 µM [cytotoxic, single point]. For `Clc1cccc(N/N=C(\Cc2nc3ccccc3[nH]2)c2ccccc2)c1`, the Potency was inconclusive: 29.1 µM [cytotoxic, single point]. In the case of `CSCC[C@H](NC(=O)c1cc2c([nH]c3ccccc32)c(-c2ccccc2)n1)C(=O)O`, the “activity change, negative = cytotoxic” value is reported as inactive: 14.9%. For `O=C(CSc1ccc(Cl)cc1)N1CCC(c2nc3ccccc3s2)CC1`, the Potency was inconclusive: 18.4 µM [cytotoxic, single point]. With `CO/N=C\C(=N\Nc1ccc(OC)cc1)C(=O)c1ccccc1` the Potency was inconclusive: 2.06 µM [cytotoxic, full curve]. In the case of `CCN1C[C@@H]2[C@@H]3C(=O)N(Cc4ccccc4)C(=O)[C@@H]3[C@](Cc3ccccc3)(C1=O)N2C(=O)c1ccc(Cl)c(Cl)c1`, the Potency is reported as inconclusive: 16.4 µM [cytotoxic, single point]. In the case of `FC(F)(F)c1cccc(Sc2nc(-c3ccccc3)nnc2C(F)(F)F)c1`, the Potency is reported as active: 20.6 µM.
